From publication PMC10912283 come the findings set out here.

Amino acid sequences for entries named in this document (tags omitted).
UniProt P27695: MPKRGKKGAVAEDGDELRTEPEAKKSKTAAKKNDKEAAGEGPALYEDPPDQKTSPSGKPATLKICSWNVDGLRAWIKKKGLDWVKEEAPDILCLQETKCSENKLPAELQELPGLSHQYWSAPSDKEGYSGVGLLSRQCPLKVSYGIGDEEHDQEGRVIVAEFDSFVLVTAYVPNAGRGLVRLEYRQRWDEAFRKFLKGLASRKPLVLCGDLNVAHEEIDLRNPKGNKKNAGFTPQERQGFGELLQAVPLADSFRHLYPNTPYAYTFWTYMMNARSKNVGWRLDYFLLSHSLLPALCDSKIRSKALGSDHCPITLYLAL
UniProt Q13283: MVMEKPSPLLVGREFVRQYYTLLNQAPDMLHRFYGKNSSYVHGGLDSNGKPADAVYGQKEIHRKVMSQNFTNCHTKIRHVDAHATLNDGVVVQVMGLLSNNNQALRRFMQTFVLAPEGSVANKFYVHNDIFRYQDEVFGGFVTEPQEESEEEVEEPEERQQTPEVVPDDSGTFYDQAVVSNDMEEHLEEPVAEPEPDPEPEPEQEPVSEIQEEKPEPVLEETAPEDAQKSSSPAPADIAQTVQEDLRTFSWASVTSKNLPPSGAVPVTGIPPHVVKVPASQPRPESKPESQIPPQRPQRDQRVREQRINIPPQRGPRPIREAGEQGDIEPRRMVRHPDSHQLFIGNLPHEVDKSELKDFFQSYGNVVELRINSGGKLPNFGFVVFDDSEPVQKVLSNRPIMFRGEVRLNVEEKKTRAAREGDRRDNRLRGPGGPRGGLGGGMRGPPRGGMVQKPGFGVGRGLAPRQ
UniProt P67809: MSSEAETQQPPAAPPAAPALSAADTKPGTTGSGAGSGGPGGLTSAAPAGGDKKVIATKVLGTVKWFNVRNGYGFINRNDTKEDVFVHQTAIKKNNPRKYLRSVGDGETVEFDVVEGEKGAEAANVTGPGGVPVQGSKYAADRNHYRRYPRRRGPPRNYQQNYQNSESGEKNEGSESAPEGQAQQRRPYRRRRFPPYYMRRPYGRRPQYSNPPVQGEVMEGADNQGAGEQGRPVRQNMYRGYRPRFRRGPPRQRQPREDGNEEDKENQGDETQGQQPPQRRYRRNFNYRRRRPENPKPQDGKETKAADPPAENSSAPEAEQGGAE

The target in assay [1] is Apurinic/apyrimidinic endodeoxyribonuclease 1 (APE1) (human (endogenous in SKOV3)) (UniProt P27695). The assay is described as follows: co-IP; cytoplasmic fraction of SKOV3 cells obtained by subcellular fractionation, anti-APE1 antibody, Western blot with anti-YBX1 and anti-G3BP1.
Assay [2] shares this target. The assay is described as follows: co-IP; SKOV3 cell lysate, anti-APE1 antibody and agarose beads at 4 °C overnight, Western blot with anti-YBX1 and anti-G3BP1; untreated cells and cells exposed to H2O2 for increasing times (more YBX1 and G3BP1 co-precipitated upon treatment, particularly after 4 h). For orientation: A western blot detects proteins with antibodies after separation by electrophoresis.

Results are given in words; binding and its absence hold for the method and conditions named. Binding seen in cells or lysates may run through a third protein. Some results given as binding are weak or reduced against the parent protein; the word gives no strength.

G3BP1 (from UniProt Q13283 1-466): the binding result in assay [1] and in assay [2] was “binds” each time.

Consider “Y-Box binding protein 1 (YBX1) (from UniProt P67809 1-324)”, for which the binding result in assay [1] and in assay [2] was “binds” throughout.
